{
  "source": "PubChem BioAssay AID2685",
  "about": "(National Center for Advancing Translational Sciences (NCATS), 2010)",
  "note": "The whole screen tested about 320,000 compounds, of which about 2,100 (0.66%) were called active. The inconclusive results got no clear call from the source; some entries with a clear call stand among them for comparison. Calls come from the whole dose curve; as a rule, active = well fitted inhibition curve with a large enough effect in the signal ratio, with a control signal flat (not every such curve was filed as active); inconclusive = small, poorly fitted or top-dose-only effect, or effect the other way, or a change in a side signal; inactive = flat fitted curve, though single readings scatter; the % refers to the signal ratio. Where the call is inconclusive, the potency comes from a doubtful curve fit. % is set by controls: 0 for no effect and ±100 for the full control effect; potency is the fitted concentration of half-maximal effect.",
  "data": [
    {"experiment": "qHTS Assay for Lipid Storage Modulators in Drosophila S3 Cells", "settings": "BODIPY lipid droplet fluorescence, 18-24 h, cells fed with added oleic acid; lipid storage change, negative = inhibition: at 46.1 µM (top of the series) unless noted", "outline": "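Drosophila S3 cells loaded with oleic acid (400 uM, as added) and compounds at several concentrations; lipid droplets imaged by 488-nm laser-scanning cytometry, 500–530 nm intensity and object ratio to cell channel. Percent activity normalized to 20 uM Triacsin C.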", "values": [
      {"smiles": "S=c1[nH]nc(-c2ccncc2)n1Cc1ccccc1", "lipid storage change, negative = inhibition": "inconclusive: -44.5%"},
      {"smiles": "COCCN(C(=O)c1cc2c(s1)CCCCC2)c1c(N)n(Cc2ccccc2)c(=O)[nH]c1=O", "lipid storage change, negative = inhibition": "inconclusive"},
      {"smiles": "COc1ccc(C(=O)NC(C(=O)NCCc2ccc3c(c2)OCCO3)C(C)C)cc1", "note": "(centres undefined)", "lipid storage change, negative = inhibition": "inconclusive: 2.98%"},
      {"smiles": "COc1ccc(NC(=O)/C(N=Nc2cc(S(=O)(=O)Nc3ccc(OC)cc3)ccc2OC)=C(\\C)O)cc1", "lipid storage change, negative = inhibition": "inconclusive: -27%"},
      {"smiles": "Cc1ccc(S(=O)(=O)ON=C2CCN(S(=O)(=O)c3ccccc3)CC2)cc1", "lipid storage change, negative = inhibition": "inconclusive: 17.5%"},
      {"smiles": "NC(=O)CSc1nnc(NC(=O)c2ccc(Br)o2)s1", "lipid storage change, negative = inhibition": "inconclusive: -12.2%"},
      {"smiles": "COc1ccc(N2CCN(c3nc(NC(C)(C)C)nc(N4CCCCC4)n3)CC2)cc1", "Potency": "inconclusive: 29100 nM [falling, partial curve, poor fit]"},
      {"smiles": "Nc1nc(-c2ccccc2)[nH]c(=O)c1N=O", "lipid storage change, negative = inhibition": "inconclusive: 35.6%"},
      {"smiles": "C/C(=N/NC(=O)CNC(=O)/C=C/c1ccccc1)c1ccco1", "lipid storage change, negative = inhibition": "inconclusive: 140%"},
      {"smiles": "O=c1c(-c2nc3ccccc3s2)cccn1Cc1ccc(Cl)cc1", "lipid storage change, negative = inhibition": "inconclusive: -10.2%"},
      {"smiles": "CC(C)N(Cc1ccccc1)C(=O)COC(=O)c1ccc(O)cc1", "Potency": "inconclusive: 820 nM [falling, full curve, poor fit]"},
      {"smiles": "C=CCNC(=O)c1ccccc1NC(=O)C1CCN(S(=O)(=O)c2ccc(SC)cc2)CC1", "lipid storage change, negative = inhibition": "inconclusive: -42.4%"},
      {"smiles": "COc1cc(OC)cc(C(=O)NC(=S)NNC(=O)[C@H]2C[C@@H]2c2ccccc2)c1", "lipid storage change, negative = inhibition": "inconclusive: 12.7%"},
      {"smiles": "CCN(CC)C(=O)C1(P(=O)(c2ccccc2)c2ccccc2)CCC1", "lipid storage change, negative = inhibition": "inconclusive: -7.72%"},
      {"smiles": "O=C(NCc1ccccc1)C1CCCN(S(=O)(=O)c2cccc3nsnc23)C1", "note": "(centres undefined)", "Potency": "inconclusive: 4.6 nM [falling, full curve, poor fit]"},
      {"smiles": "O=C1COc2ccc(C(=O)c3ccccc3C(=O)NCc3ccco3)cc2N1", "lipid storage change, negative = inhibition": "inconclusive: -27.5%"},
      {"smiles": "COc1ccc(C(=O)c2oc3nc(C)cc(C)c3c2N)cc1", "Potency": "inconclusive: 103 nM [activator, full curve, poor fit]"},
      {"smiles": "CCN(CC)S(=O)(=O)c1ccc(N2CCCC2)c(NC(=O)c2nn(C)c(=O)c3ccccc23)c1", "lipid storage change, negative = inhibition": "inconclusive: -50.7%"},
      {"smiles": "COc1ccccc1C(=O)COC(=O)c1cc(S(=O)(=O)N2CCCCC2)ccc1N1CCOCC1", "lipid storage change, negative = inhibition": "inconclusive: 14%"},
      {"smiles": "CCN(CC)S(=O)(=O)c1ccc(C)c(NC(=O)COC(=O)c2ccc(C)c(S(=O)(=O)N3CCOCC3)c2)c1", "Potency": "inconclusive: 29100 nM [falling, single point]"},
      {"smiles": "COc1ccc(-c2cn[nH]c2-c2ccc(OCc3ccccc3)cc2O)cc1OC", "lipid storage change, negative = inhibition": "inconclusive: -11.4%"},
      {"smiles": "Cc1ccc(CNC(=O)c2sc3nc4c(c(C(F)(F)F)c3c2N)CCC4)cc1", "Potency": "inconclusive: 517 nM [activator, full curve, poor fit]"},
      {"smiles": "CCOC(=O)C1CCN(C(=O)Nc2ccc(Cl)cc2)CC1", "Potency": "inconclusive: 4110 nM [activator, full curve]"},
      {"smiles": "O=C(CSc1nc2ccc(Nc3nc(N4CCOCC4)nc(N4CCOCC4)n3)cc2s1)Nc1ccccc1F", "Potency": "inconclusive: 580 nM [activator, single point]"},
      {"smiles": "CCOc1ccccc1NC=C1C(=O)OC2(CCCCC2)OC1=O", "Potency": "inconclusive: 4110 nM [activator, full curve, poor fit]"},
      {"smiles": "COc1ccc(Cn2c(=O)[nH]c3cc(C(=O)NCCCN4CCCC4)ccc3c2=O)cc1", "Potency": "inconclusive: 5.2 nM [falling, full curve, poor fit]"},
      {"smiles": "O=C(NCc1ccc2c(c1)OCO2)c1cc(-c2ccncc2)nc2ccccc12", "lipid storage change, negative = inhibition": "inconclusive: 33.4%"},
      {"smiles": "N#Cc1c(C(F)(F)F)cc(-c2cccc(Cl)c2)[nH]c1=O", "lipid storage change, negative = inhibition": "inconclusive: 4.72%"},
      {"smiles": "O=C1NC(=Nc2cccc([N+](=O)[O-])c2)SC1(CO)CO", "lipid storage change, negative = inhibition": "inconclusive: -163%"},
      {"smiles": "CCOc1ccc(S(=O)(=O)N2CCCC(C(=O)NCc3ccccc3)C2)cc1", "note": "(centres undefined)", "lipid storage change, negative = inhibition": "inconclusive: 19.4%"},
      {"smiles": "CCCC(=O)NC(=S)Nc1ccccc1OC", "lipid storage change, negative = inhibition": "inconclusive: -2.88%"},
      {"smiles": "COc1ccccc1C1C(C(=O)NCc2ccccc2)=C(C)Nc2ncnn21", "note": "(centres undefined)", "lipid storage change, negative = inhibition": "inconclusive: 23%"},
      {"smiles": "COc1ccc(N=C2SC(C(=O)O)CC(=O)N2C)cc1", "note": "(centres undefined)", "lipid storage change, negative = inhibition": "inconclusive: 40.6%"},
      {"smiles": "CC1CC(C)C[N+](=C2C=C(N3CCCC3)CC(C)(C)C2)C1", "note": "(centres undefined)", "lipid storage change, negative = inhibition": "inconclusive: -94.4%"},
      {"smiles": "N/C(Cc1ccc(Cl)cc1Cl)=N\\OC(=O)Cc1ccc(Cl)cc1", "lipid storage change, negative = inhibition": "inconclusive: 29%"},
      {"smiles": "COc1ccc2nc(Nc3nc(CSc4nc5ccccc5[nH]4)cc(=O)[nH]3)nc(C)c2c1", "lipid storage change, negative = inhibition": "inconclusive: -28.2%"},
      {"smiles": "CSc1ccc(-c2sc(Nc3cccc4ccccc34)n[n+]2-c2ccccc2)cc1", "lipid storage change, negative = inhibition": "inconclusive: -29.1%"},
      {"smiles": "O=C(COC(=O)c1cc(-c2cccs2)nn1-c1ccccc1)Nc1cccc([N+](=O)[O-])c1", "Potency": "inconclusive: 1840 nM [falling, partial curve]"},
      {"smiles": "COc1ccc(NS(=O)(=O)c2cccc(NC(=O)c3ccc(Cl)nc3)c2)cc1", "lipid storage change, negative = inhibition": "inconclusive: -36.6%"},
      {"smiles": "Cc1ccc(NS(=O)(=O)c2c(C(=O)N3CCCCCC3)c(C)n(C)c2C)cc1C", "lipid storage change, negative = inhibition": "inconclusive: 10.2%"},
      {"smiles": "COC(=O)Cn1c2ccc(C)cc2c2nc(C)sc21", "lipid storage change, negative = inhibition": "inconclusive: -23.6%"},
      {"smiles": "N#C/C(=C\\c1ccc(-c2cccc(Cl)c2)o1)C(=O)Nc1cccc2cccnc12", "Potency": "inconclusive: 731 nM [activator, full curve]"},
      {"smiles": "O=C(Nc1nc(-c2ccccn2)cs1)C1COc2ccccc2O1", "note": "(centres undefined)", "lipid storage change, negative = inhibition": "inconclusive: -25.6%"},
      {"smiles": "O=C(CCCCCCC(=O)NCc1ccccc1)NCc1ccccc1", "Potency": "inconclusive: 8200 nM [activator, partial curve]"},
      {"smiles": "CN(Cc1ccc(F)cc1)C(=O)c1cc(COc2ccc(-n3cncn3)cc2)on1", "lipid storage change, negative = inhibition": "inconclusive: -34.3%"},
      {"smiles": "CC1(C)CC(=O)C2=C(C1)N1C(=C(C#N)C2c2ccccc2Cl)N=C(N)c2ccccc21", "note": "(centres undefined)", "lipid storage change, negative = inhibition": "inconclusive: 5.1%"},
      {"smiles": "Cc1[nH]nc2c1C(c1ccoc1)C(C#N)=C(N)O2", "note": "(centres undefined)", "Potency": "inconclusive: 130 nM [falling, full curve, poor fit]"},
      {"smiles": "NS(=O)(=O)c1cc(C(=O)OCC(=O)N2CCc3ccccc3C2)ccc1Cl", "lipid storage change, negative = inhibition": "inconclusive: 10.6%"},
      {"smiles": "CN(C(=O)C1CCN(c2ncnc3c2nc2n3CCCCC2)CC1)C1CCCCC1", "lipid storage change, negative = inhibition": "inconclusive: -47.9%"},
      {"smiles": "O=C(Cn1ncc2c(=O)oc3ccccc3c21)NCCc1ccsc1", "lipid storage change, negative = inhibition": "inconclusive: 28.8%"},
      {"smiles": "Cc1ccc(CNC(=O)CCn2cc(-c3ccc(C)cc3)nc2CCN)cc1", "lipid storage change, negative = inhibition": "inconclusive: 45.4%"},
      {"smiles": "Cc1cc(/C=C(\\C#N)c2nc3ccccc3[nH]2)c(C)n1C", "lipid storage change, negative = inhibition": "inconclusive: 24.9%"},
      {"smiles": "CCN(CC(=O)Nc1c(F)cccc1F)C(=O)c1cc2c(cc1Cl)N1CCCCCC1=NS2(=O)=O", "lipid storage change, negative = inhibition": "inconclusive"},
      {"smiles": "CC(=O)/C(=C/Nc1ccc(Oc2ccccc2)cc1)c1ccccc1", "outcome": "inactive [at 46.1 µM]"},
      {"smiles": "Cc1cc(NC(=O)CSc2ccc3c(c2)OCCO3)no1", "lipid storage change, negative = inhibition": "inconclusive: 4.28%"},
      {"smiles": "Cc1cccc(S(=O)(=O)N2CN(Cc3ccco3)c3nc4ccccc4nc32)c1", "Potency": "inconclusive: 32600 nM [falling, single point]"},
      {"smiles": "O=C(c1ccccc1)c1ccc(OC(=O)C2CCCCC2)cc1", "Potency": "inconclusive: 29100 nM [falling, single point]"},
      {"smiles": "COc1ccc(C(=O)Nc2ccnn2C2CCN(C(=O)CCC(F)(F)F)CC2)cc1", "lipid storage change, negative = inhibition": "inconclusive: -36.9%"},
      {"smiles": "COc1cc(/C=C(/C#N)c2ccc(F)cc2)ccc1OCc1ccc(C(=O)O)o1", "lipid storage change, negative = inhibition": "inconclusive: 16.2%"},
      {"smiles": "COc1ccccc1CNC(=O)c1cccc(-c2ccc(C)c3ccccc23)n1", "Potency": "inconclusive: 8200 nM [activator, partial curve]"},
      {"smiles": "CCC(CC)C(=O)Nc1cccc(S(=O)(=O)c2cccc(NC(=O)C(CC)CC)c2)c1", "lipid storage change, negative = inhibition": "inconclusive: -0.885%"},
      {"smiles": "O=C(CN(C(=O)CNC(=O)c1ccco1)c1cccc(F)c1)NC1CCCCC1", "lipid storage change, negative = inhibition": "inconclusive: 84.5%"},
      {"smiles": "Cc1ccc(NC2=NCC(=O)N2Cc2ccc3c(c2)OCO3)cc1", "Potency": "inconclusive: 1840 nM [activator, partial curve]"},
      {"smiles": "CCn1cnc2c1c(=O)n(Cc1cccc(Br)c1)c(=O)n2Cc1ccccc1", "lipid storage change, negative = inhibition": "inconclusive: -21.7%"},
      {"smiles": "COc1ccc(CNC(=O)Cn2cncn2)cc1OC", "lipid storage change, negative = inhibition": "inconclusive: -0.925%"},
      {"smiles": "Cc1ccc(OCC(=O)Nc2ccc(C(=O)O)cc2NC(=O)COc2ccc(C)c(C)c2)cc1C", "Potency": "inconclusive: 29100 nM [activator, single point]"},
      {"smiles": "CCCOc1ccccc1NC(=O)c1ccc(N)cc1", "Potency": "inconclusive: 461 nM [rising, partial curve, poor fit]"},
      {"smiles": "CCOC(=O)N1CCN(C(=O)c2ccc(CNS(=O)(=O)c3ccc(OC)cc3)cc2)CC1", "lipid storage change, negative = inhibition": "inactive: 3.37%"},
      {"smiles": "COC(=O)C1=CN(CCCN2CCCC2=O)C=C(C(=O)OC)C1c1ccccc1C(F)(F)F", "lipid storage change, negative = inhibition": "inconclusive: 3.84%"},
      {"smiles": "O=C(NC(Cc1ccccc1)C(=O)N1CCCCCC1)c1ccccc1", "note": "(centres undefined)", "Potency": "inconclusive: 731 nM [activator, full curve]"},
      {"smiles": "Cc1cc(=O)oc2cc(NC(=O)c3ccccc3OC(F)F)ccc12", "lipid storage change, negative = inhibition": "inconclusive: 61.1%"},
      {"smiles": "O=C(NC(Cc1ccccc1)C(=O)O)/C(=C/c1ccc([N+](=O)[O-])cc1)NC(=O)c1ccc(Br)o1", "note": "(centres undefined)", "lipid storage change, negative = inhibition": "inconclusive: 9.49%"},
      {"smiles": "COc1ccc(-c2nc(SCC(=O)N3CCCC3)n[nH]2)cc1", "Potency": "inconclusive: 116 nM [activator, partial curve, poor fit]"},
      {"smiles": "CN1CCN(C(=O)/C=C/c2ccc([N+](=O)[O-])cc2)CC1", "lipid storage change, negative = inhibition": "inactive: -0.257%"}
    ]}
  ]
}
